Data on one molecule can be found in article PMC11988799.

Results are given in words; binding and its absence hold for the method and conditions named. Binding seen in cells or lysates may run through a third protein. Some entries that bind do so weakly or less than the wild type.

The target of this experiment is T1, MD2, also known as lymphocyte antigen 96 (UniProt Q9JHF9).
T1 sequence: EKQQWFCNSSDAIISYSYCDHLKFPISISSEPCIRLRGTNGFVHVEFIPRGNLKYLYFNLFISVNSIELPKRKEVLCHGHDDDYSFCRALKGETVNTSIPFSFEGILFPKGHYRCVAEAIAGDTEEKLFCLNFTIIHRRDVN
Put plainly: co-IP; endogenous proteins; 1.5 ug biotinylated anti-MD2 (or anti-Clec7a) antibody with 400-500 ug protein sample overnight at 4 °C, Protein G magnetic beads 2 h at 4 °C, four washes with IP lysis buffer, immunoblot.

B1: Clec7a (receptor, UniProt Q6QLQ4 1-244)
chain: MKYHSHIENLDEDGYTQLDFSTQDIHKRPRGSEKGSQAPSSPWRPIAVGLGILCFVVVVVAAVLGALGEYGHNSGRNPEEKDNFLSRNKENHKPTESSLDEKVAPSKASQTTGGFSQPCLPNWIMHGKSCYLFSFSGNSWYGSKRHCSQLGAHLLKIDNSKEFEFIESQTSSHRINAFWIGLSRNQSEGPWFWEDGSAFFPNSFQVRNTAPQESLLHNCVWIHGSEVYNQICNTSSYSICEKEL
In the case of B1, the binding entry is on record as “binds”.
